# From patent publication US20100324017A1, “ACYLGUANIDINE DERIVATIVE” (priority 2007, published 2010)
# At least one structure is not confirmed: it was looked up by name or label, or the drawing left a doubt.
# Test system: MAP-induced overactivity
# Assay: MAP (methane phetamine)-induced overactivity in mice, kinetic momentum by infrared sensor
# Type: in vivo
# Settings: mouse, dose 0.3 mg/kg; MAP 1 mg/kg i.p.
# Procedure: Evaluation of Various Drugs Relative to a Drug for Increasing the Kinetic Momentum of Mice (Methane Phetamine, MK-801) (Method for Measuring a Kinetic Momentum by Discharge of an Infrared Ray)
# The effect of improving the positive symptoms and the negative symptoms of schizophrenia by the compound (I) was evaluated by measuring the kinetic momentum that had been […] with administration of the compound in a model causing the symptoms by methane phetamine (which is hereinafter simply referred to as MAP) and MK-801.
# Species: Male ICR mouse/number of animals (number of animals per group): 8 to 12 animals per group
# The animal was left in a laboratory for 1 hour or longer to be acclimated to the environment, and the animal was taken from the feeding cage, orally administered with a compound to be tested, and then returned to the feeding cage. After 30 minutes, it was put into a cage for measurement, and the kinetic momentum of just the compound to be tested was measured. Further, after 30 minutes, the animal was taken out, and intraperitoneally administered with a drug for increasing kinetic momentum (MAP; 1 mg/kg or MK-801; 0.3 mg/kg, all dissolved in physiological saline), and its kinetic momentum was measured for a certain time (60 minutes) using a device for measuring the kinetic momentum by means of an infrared ray sensor (CompACT AMS, Muromachi Kikai Co., Ltd.). […]
smiles,measurement,value
"Cc1cc2c(s1)Nc1ccccc1N=C2N1CCN(C)CC1 [olanzapine, reference compound]",inhibition of MAP-induced overactivity,significantly inhibited
